Among the data in article PMC13391367 are binding values, retold here.

Amino acid sequences for entries named in this document (tags omitted).
UniProt O60318: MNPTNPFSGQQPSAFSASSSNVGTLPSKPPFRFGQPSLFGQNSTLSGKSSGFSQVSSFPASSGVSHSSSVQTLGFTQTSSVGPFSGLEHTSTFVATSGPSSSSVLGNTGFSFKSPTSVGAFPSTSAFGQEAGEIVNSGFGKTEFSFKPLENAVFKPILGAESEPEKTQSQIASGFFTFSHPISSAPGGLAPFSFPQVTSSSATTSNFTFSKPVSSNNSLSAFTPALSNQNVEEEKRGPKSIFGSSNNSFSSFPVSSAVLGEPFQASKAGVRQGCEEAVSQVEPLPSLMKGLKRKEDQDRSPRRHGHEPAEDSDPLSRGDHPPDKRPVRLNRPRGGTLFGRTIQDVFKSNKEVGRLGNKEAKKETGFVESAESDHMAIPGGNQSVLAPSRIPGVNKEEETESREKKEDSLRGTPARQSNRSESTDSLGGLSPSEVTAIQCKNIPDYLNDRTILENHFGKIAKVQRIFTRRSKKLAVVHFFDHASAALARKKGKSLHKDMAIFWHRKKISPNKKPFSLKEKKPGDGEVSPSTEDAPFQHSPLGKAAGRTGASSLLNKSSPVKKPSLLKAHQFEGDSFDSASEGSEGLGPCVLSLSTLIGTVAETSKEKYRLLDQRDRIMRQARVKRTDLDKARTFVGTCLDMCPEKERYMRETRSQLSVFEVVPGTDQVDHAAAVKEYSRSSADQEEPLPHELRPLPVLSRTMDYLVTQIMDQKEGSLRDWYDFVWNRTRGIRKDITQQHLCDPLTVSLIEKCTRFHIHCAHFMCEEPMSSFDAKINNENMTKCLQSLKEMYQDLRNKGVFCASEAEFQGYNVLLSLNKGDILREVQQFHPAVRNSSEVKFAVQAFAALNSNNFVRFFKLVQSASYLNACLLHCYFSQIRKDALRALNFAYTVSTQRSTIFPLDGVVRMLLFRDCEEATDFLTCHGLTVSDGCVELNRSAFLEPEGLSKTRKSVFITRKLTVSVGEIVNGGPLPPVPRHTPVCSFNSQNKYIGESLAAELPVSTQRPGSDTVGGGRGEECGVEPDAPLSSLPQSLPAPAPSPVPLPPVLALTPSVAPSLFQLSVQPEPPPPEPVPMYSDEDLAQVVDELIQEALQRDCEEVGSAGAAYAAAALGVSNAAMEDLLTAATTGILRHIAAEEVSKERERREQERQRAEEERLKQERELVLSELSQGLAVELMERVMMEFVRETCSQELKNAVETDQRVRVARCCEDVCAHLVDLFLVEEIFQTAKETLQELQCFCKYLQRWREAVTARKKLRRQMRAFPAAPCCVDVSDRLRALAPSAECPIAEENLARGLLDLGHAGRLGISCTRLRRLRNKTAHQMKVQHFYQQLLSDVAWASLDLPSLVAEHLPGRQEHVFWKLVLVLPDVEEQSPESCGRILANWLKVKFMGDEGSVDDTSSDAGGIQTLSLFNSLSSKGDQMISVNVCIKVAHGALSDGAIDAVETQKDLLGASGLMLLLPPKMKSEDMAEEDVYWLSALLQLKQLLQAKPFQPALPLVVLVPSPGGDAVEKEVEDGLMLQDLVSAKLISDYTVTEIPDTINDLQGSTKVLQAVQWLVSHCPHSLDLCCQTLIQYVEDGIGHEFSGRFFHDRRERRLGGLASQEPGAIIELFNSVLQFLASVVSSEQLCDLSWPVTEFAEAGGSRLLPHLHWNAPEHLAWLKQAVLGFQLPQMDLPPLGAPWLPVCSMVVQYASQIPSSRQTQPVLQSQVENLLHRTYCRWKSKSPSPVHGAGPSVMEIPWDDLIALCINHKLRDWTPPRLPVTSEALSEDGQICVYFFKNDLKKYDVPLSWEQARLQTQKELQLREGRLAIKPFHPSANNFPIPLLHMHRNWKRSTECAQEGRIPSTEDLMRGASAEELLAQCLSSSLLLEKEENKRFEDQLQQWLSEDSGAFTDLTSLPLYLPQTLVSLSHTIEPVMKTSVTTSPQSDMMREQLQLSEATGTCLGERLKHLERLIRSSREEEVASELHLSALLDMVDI

Results are given in words; binding and its absence hold for the method and conditions named. Binding seen in cells or lysates may run through a third protein. These calls come from enrichment with a bait or labelling near it, and not all partners need be listed.

The target of the test is GANP–3×Flag (endogenously tagged) (human (endogenous in HeLa)) (UniProt O60318). Nature of the test: affinity purification with mass spectrometry; anti-Flag IP from extracts of HeLa cells with endogenously 3×Flag-tagged GANP, LENG8 or PCID2; high stringency (washes with 450 mM NaCl); with or without Pierce universal nuclease; label-free, triplicates, against maternal HeLa.

B1: ENY2 (endogenous) (protein, UniProt Q9NPA8 1-101)
chain: MVVSKMNKDAQMRAAINQKLIETGERERLKELLRAKLIECGWKDQLKAHCKEVIKEKGLEHVTVDDLVAEITPKGRALVPDSVKKELLQRIRTFLAQHASL
B1: the binding entry is listed as “binds”.
